# ChEMBL document CHEMBL4316593 (Eur J Med Chem, 2019)
# Further values from the same series stand in other lists.
# Tests used:
# Type in all cases: cell-based
# Details in all cases: U-87MG ATCC
# [1] = Inhibition of RTK/PI3K/AKT/mTOR signaling in human U87 cells assessed as up regulation of CNTD2 gene expression at cytotoxic IC50 measured after 48 hrs relative to control
# [2] = Inhibition of RTK/PI3K/AKT/mTOR signaling in human U87 cells assessed as up regulation of SDC3 gene expression at cytotoxic IC50 measured after 48 hrs relative to control
# [3] = Inhibition of RTK/PI3K/AKT/mTOR signaling in human U87 cells assessed as up regulation of RPL14 gene expression at cytotoxic IC50 measured after 48 hrs relative to control
# [4] = Inhibition of RTK/PI3K/AKT/mTOR signaling in human U87 cells assessed as up regulation of RPS7 gene expression at cytotoxic IC50 measured after 48 hrs relative to control
# [5] = Inhibition of RTK/PI3K/AKT/mTOR signaling in human U87 cells assessed as down regulation of OTULIN gene expression at cytotoxic IC50 measured after 48 hrs relative to control
# [6] = Inhibition of RTK/PI3K/AKT/mTOR signaling in human U87 cells assessed as down regulation of GOT1 gene expression at cytotoxic IC50 measured after 48 hrs relative to control
# [7] = Inhibition of RTK/PI3K/AKT/mTOR signaling in human U87 cells assessed as up regulation of calmin gene expression at cytotoxic IC50 measured after 48 hrs relative to control
# [8] = Inhibition of RTK/PI3K/AKT/mTOR signaling in human U87 cells assessed as up regulation of ARMC4 gene expression at cytotoxic IC50 measured after 48 hrs relative to control
# [9] = Inhibition of RTK/PI3K/AKT/mTOR signaling in human U87 cells assessed as down regulation of EPC2 gene expression at cytotoxic IC50 measured after 48 hrs relative to control
# [10] = Inhibition of RTK/PI3K/AKT/mTOR signaling in human U87 cells assessed as up regulation of retinoic acid receptor gamma gene expression at cytotoxic IC50 measured after 48 hrs relative to control
# [11] = Inhibition of RTK/PI3K/AKT/mTOR signaling in human U87 cells assessed as down regulation of MIGA2 gene expression at cytotoxic IC50 measured after 48 hrs relative to control
# [12] = Inhibition of RTK/PI3K/AKT/mTOR signaling in human U87 cells assessed as up regulation of C1QTNF1 gene expression at cytotoxic IC50 measured after 48 hrs relative to control
# [13] = Inhibition of RTK/PI3K/AKT/mTOR signaling in human U87 cells assessed as down regulation of CHERP gene expression at cytotoxic IC50 measured after 48 hrs relative to control
# [14] = Inhibition of RTK/PI3K/AKT/mTOR signaling in human U87 cells assessed as down regulation of HECW1 gene expression at cytotoxic IC50 measured after 48 hrs relative to control
# [15] = Inhibition of RTK/PI3K/AKT/mTOR signaling in human U87 cells assessed as up regulation of cadherin 3 gene expression at cytotoxic IC50 measured after 48 hrs relative to control
# [16] = Inhibition of RTK/PI3K/AKT/mTOR signaling in human U87 cells assessed as down regulation of FBXO22 gene expression at cytotoxic IC50 measured after 48 hrs relative to control
# [17] = Inhibition of RTK/PI3K/AKT/mTOR signaling in human U87 cells assessed as down regulation of GCLM gene expression at cytotoxic IC50 measured after 48 hrs relative to control
# [18] = Inhibition of RTK/PI3K/AKT/mTOR signaling in human U87 cells assessed as down regulation of CRYAB gene expression at cytotoxic IC50 measured after 48 hrs relative to control
# [19] = Inhibition of RTK/PI3K/AKT/mTOR signaling in human U87 cells assessed as down regulation of CRK gene expression at cytotoxic IC50 measured after 48 hrs relative to control
# [20] = Inhibition of RTK/PI3K/AKT/mTOR signaling in human U87 cells assessed as up regulation of cyclin B1 interacting protein 1 gene expression at cytotoxic IC50 measured after 48 hrs relative to control
# [21] = Inhibition of RTK/PI3K/AKT/mTOR signaling in human U87 cells assessed as down regulation of MFSD6 gene expression at cytotoxic IC50 measured after 48 hrs relative to control
# [22] = Inhibition of RTK/PI3K/AKT/mTOR signaling in human U87 cells assessed as down regulation of NECAP1 gene expression at cytotoxic IC50 measured after 48 hrs relative to control
# [23] = Inhibition of RTK/PI3K/AKT/mTOR signaling in human U87 cells assessed as up regulation of syntaxin 2 gene expression at cytotoxic IC50 measured after 48 hrs relative to control
# [24] = Inhibition of RTK/PI3K/AKT/mTOR signaling in human U87 cells assessed as up regulation of MIR210HG gene expression at cytotoxic IC50 measured after 48 hrs relative to control
# [25] = Inhibition of RTK/PI3K/AKT/mTOR signaling in human U87 cells assessed as up regulation of WNT16 gene expression at cytotoxic IC50 measured after 48 hrs relative to control
# [26] = Inhibition of RTK/PI3K/AKT/mTOR signaling in human U87 cells assessed as down regulation of C11orf24 gene expression at cytotoxic IC50 measured after 48 hrs relative to control
# [27] = Inhibition of RTK/PI3K/AKT/mTOR signaling in human U87 cells assessed as up regulation of SRY-box 4 gene expression at cytotoxic IC50 measured after 48 hrs relative to control
# [28] = Inhibition of RTK/PI3K/AKT/mTOR signaling in human U87 cells assessed as up regulation of claudin 4 gene expression at cytotoxic IC50 measured after 48 hrs relative to control
# [29] = Inhibition of RTK/PI3K/AKT/mTOR signaling in human U87 cells assessed as down regulation of ZFYVE26 gene expression at cytotoxic IC50 measured after 48 hrs relative to control
# [30] = Inhibition of RTK/PI3K/AKT/mTOR signaling in human U87 cells assessed as down regulation of NUDC gene expression at cytotoxic IC50 measured after 48 hrs relative to control
# [31] = Inhibition of RTK/PI3K/AKT/mTOR signaling in human U87 cells assessed as down regulation of USP1 gene expression at cytotoxic IC50 measured after 48 hrs relative to control
# [32] = Inhibition of RTK/PI3K/AKT/mTOR signaling in human U87 cells assessed as up regulation of actin binding LIM protein 1 gene expression at cytotoxic IC50 measured after 48 hrs relative to control
structure (smiles),measurement,setting,value
CC(=O)C(=NNc1ccccc1C#N)C(C)=O,log2FC,[1],2.25
same,log2FC,[2],0.59
same,log2FC,[3],0.423
same,log2FC,[4],0.357
same,log2FC,[5],-0.978
same,log2FC,[6],-0.997
same,log2FC,[7],1.23
same,log2FC,[8],1.65
same,log2FC,[9],-0.787
same,log2FC,[10],1.46
same,log2FC,[11],-0.805
same,log2FC,[12],1.93
same,log2FC,[13],-0.526
same,log2FC,[14],-1.49
same,log2FC,[15],1.1
same,log2FC,[16],-0.6
same,log2FC,[17],-1.19
same,log2FC,[18],-7.2
same,log2FC,[19],-0.711
same,log2FC,[20],0.803
same,log2FC,[21],-1.26
same,log2FC,[22],-0.981
same,log2FC,[23],0.746
same,log2FC,[24],3.5
same,log2FC,[25],3.37
same,log2FC,[26],-0.756
same,log2FC,[27],0.948
same,log2FC,[28],1.02
same,log2FC,[29],-1.58
same,log2FC,[30],-0.456
same,log2FC,[31],-0.602
same,log2FC,[32],0.682
